Key:
Assay type in all cases: cell-based
Sm.5HTR [1] = target: T1, Sm.5HTR (Schistosoma mansoni, UniProt G4V5G4); assay: Antagonist washout (inactivating antagonist) GloSensor assay on suspension cells
Protocol: To test putative irreversible antagonists, assays on suspension cells were performed one day post transfection. […] Compounds were added at 10 μM, and after 30 minute incubation at room temperature cells were centrifuged (300 RCF, 5 minutes) and resuspended in fresh media. This wash step was repeated, and cells were resuspended in HBSS supplemented with 0.1% BSA, 20mM HEPES and GloSensor reagent. Cells were gently rotated to prevent aggregation and settling over the course of the two hour equilibration period, after which time they were transferred to 96 well plates at a density of 8 x 10^4 cells / 100μL per well and assays described for adherent cells.

By UniProt entry, the sequences of proteins in these tests, tags left out.
UniProt G4V5G4, entry or part of it: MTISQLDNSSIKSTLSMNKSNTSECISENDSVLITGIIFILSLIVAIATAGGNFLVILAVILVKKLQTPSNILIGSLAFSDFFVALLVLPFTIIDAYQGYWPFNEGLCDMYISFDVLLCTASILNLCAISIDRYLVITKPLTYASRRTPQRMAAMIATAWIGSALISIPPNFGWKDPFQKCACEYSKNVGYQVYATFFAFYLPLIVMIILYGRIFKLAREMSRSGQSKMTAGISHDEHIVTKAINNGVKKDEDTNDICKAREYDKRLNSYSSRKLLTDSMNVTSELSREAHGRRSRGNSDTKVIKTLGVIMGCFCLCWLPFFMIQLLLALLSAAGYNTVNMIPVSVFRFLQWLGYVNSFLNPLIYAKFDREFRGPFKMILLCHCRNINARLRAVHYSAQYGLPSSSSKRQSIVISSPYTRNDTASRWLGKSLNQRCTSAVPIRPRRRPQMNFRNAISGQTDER
UniProt A0A173FEI8, entry or part of it: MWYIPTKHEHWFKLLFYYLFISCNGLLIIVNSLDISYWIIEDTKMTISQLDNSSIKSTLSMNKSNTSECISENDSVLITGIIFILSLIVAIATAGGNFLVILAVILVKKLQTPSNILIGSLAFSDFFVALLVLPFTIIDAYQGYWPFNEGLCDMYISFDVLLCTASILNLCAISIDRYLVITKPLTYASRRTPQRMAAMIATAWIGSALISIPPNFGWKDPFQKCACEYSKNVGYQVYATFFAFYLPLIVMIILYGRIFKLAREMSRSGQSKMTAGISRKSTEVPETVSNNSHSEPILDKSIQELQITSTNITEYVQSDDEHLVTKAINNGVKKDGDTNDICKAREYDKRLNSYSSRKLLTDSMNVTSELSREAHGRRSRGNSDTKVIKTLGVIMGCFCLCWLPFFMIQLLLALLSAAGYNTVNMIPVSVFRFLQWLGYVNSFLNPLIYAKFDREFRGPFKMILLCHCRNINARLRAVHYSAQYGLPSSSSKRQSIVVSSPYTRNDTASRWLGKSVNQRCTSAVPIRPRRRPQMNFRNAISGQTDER

Sm.5HTR [2] = target: T1, Sm.5HTR
Protocol: (§1) HEK293 cells (ATCC CRL-1573.3) were cultured in DMEM supplemented with 10% fetal bovine serum (FBS), penicillin (100 units/ml), streptomycin (100 μg/ml), and L-glutamine (290 μg/ml). Cells were transiently transfected (ViaFect, Promega) as per the manufacturer’s protocol at a density of 2x10^6 cells per T-25 cell-culture flask. Cells were transfected with plasmids encoding GloSensor (Promega) and either Sm.5HTR (Smp_126730, GenBank accession number KF444051.1) or Sm.5HTRL (KX150867), bothGPCRs being codon optimized for mammalian expression, or Hs.5HT7a (GenBank accession number NM_000872.4, R&D Systems) subcloned into pCS2(-). Cell culture reagents were from Invitrogen. Epitope tagged constructs were used to verify expression, and untagged constructs used for all luminescence assays.
For assays performed on adherent cells, HEK-293 cells were transferred one day post transfection to 96 well, solid white plates (Corning, cat # 3917) coated with 0.01% poly-L-lysine (Sigma Aldrich) at a density of 5 x 10^4 cells / well in DMEM supplemented with 1% dialyzed FBS (Gibco). […] Plates were allowed to equilibrate at room temperature for two hours prior to performing luminescence assays (GloMax-Multi Detection System plate reader, Promega). […]

Sm.5HTRL = Sm.5HTRL (Schistosoma mansoni, UniProt A0A173FEI8); assay: GloSensor cAMP assay in HEK293 cells expressing Sm.5HTRL; conditions: antagonists 10μM, 5-HT EC80 dose
Protocol: as §1
Sequence for Sm.5HTRL was determined by cloning from an Schistosoma mansoni cDNA library (adult male and female NMRI strain, BEI cat #NR-36056) using high fidelity Advantage HD DNA polymerase (Clontech) and primers described in [20]. PCR products were ligated into the pGEM-T Easy vector system (Promega) prior to DNA sequencing. Additional sequence contained in the Sm.5HTRL isoform was verified by 5’/3’ RACE (SMARTer RACE Kit, Clontech) using total RNA extracted from S. mansoni (Trizol reagent, Ambion). Products were cloned into the pRACE vector (In-Fusion HD Cloning Kit, Clontech) prior to DNA sequencing. […]

SMILES	inhibition of Sm.5HTR after antagonist wash-out (Sm.5HTR [1]; 10μM for 30 mins, washout, 5-HT response 1hr later)	potency for Sm.5HTR inhibition after washout (Sm.5HTR [1]; titration, Fig 6E)	acute inhibition of 5-HT (10μM) response at Sm.5HTR (Sm.5HTR [2])	inhibition of 5-HT evoked cAMP generation through Sm.5HTRL (Sm.5HTRL)	selectivity for Sm.5HTR over Hs.5HT7R (Sm.5HTR [2])
CCN(CC)C(=O)N[C@H]1C=C2c3cccc4[nH]cc(c34)C[C@H]2N(C)C1 [lisuride]	long-lasting inhibition	most potent	Inhibition of 5-HT response	–	–
Cc1ccccc1C(OCCN(C)C)c1ccccc1 (centres unmarked) [orphenadrine]	–	–	–	inhibited 5-HT evoked cAMP generation	clear selectivity for Sm.5HTR

— paper PMC4871480, “A Miniaturized Screen of a Schistosoma mansoni Serotonergic G Protein-Coupled Receptor Identifies Novel Classes of Parasite-Selective Inhibitors” (PLoS Pathogens, 2016)
